# Test results: the supplement of paper PMC8326762, “A Small Molecule Inhibitor of Pex3–Pex19 Interaction Disrupts Glycosome Biogenesis and Causes Lethality in Trypanosoma brucei” (Frontiers in Cell and Developmental Biology, 2021)
# Where a name gives a salt, the structure may show the parent alone. This is one part of the list. This is a noisy data set.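 Yeast growth was read as optical density at 600 nm. The two-hybrid strains grew without histidine, so growth needed the Pex3–Pex19 binding; a compound counted as trypanosome-selective if it cut growth of the trypanosome-pair strain by more than 65% and the human-pair strain by less than 65%.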
# Key:
# [1] = test system: Saccharomyces cerevisiae HF7c pdr5Δ; test: general growth inhibition of yeast HF7c pdr5Δ in -Leu -Trp medium, relative to DMSO; higher = stronger general growth inhibition; conditions: 100 µM; 24 h
# [2] = test system: human PEX3-PEX19 interaction (yeast two-hybrid); test: growth inhibition of yeast two-hybrid strain reporting HsPex3-HsPex19 interaction, relative to DMSO; higher = stronger inhibition of human Pex3-Pex19 interaction / growth; conditions: 100 µM; 24 h; 3-aminotriazole 10 mM
# [3] = test system: T. brucei Pex3-Pex19 interaction (yeast two-hybrid); test: growth inhibition of yeast two-hybrid strain reporting TbPex3-TbPex19 interaction, relative to DMSO; higher = stronger inhibition of T. brucei Pex3-Pex19 interaction / growth; conditions: 100 µM; 24 h
Compound,general growth inhibition [1],growth inhibition [2],growth inhibition [3]
O=C(O)C1=CCCNC1 [Guvacine hydrochloride],40.8%,36.4%,57.6%
CN[C@H](CC(C)C)C(=O)N[C@H]1C(=O)N[C@@H](CC(N)=O)C(=O)N[C@H]2C(=O)N[C@H]3C(=O)N[C@H](C(=O)N[C@H](C(=O)O)c4cc(O)cc(O)c4-c4cc3ccc4O)[C@H](O)c3ccc(c(Cl)c3)Oc3cc2cc(c3O[C@@H]2O[C@H](CO)[C@@H](O)[C@H](O)[C@H]2O[C@H]2C[C@](C)(N)[C@H](O)[C@H](C)O2)Oc2ccc(cc2Cl)[C@H]1O [Vancomycin hydrochloride from Streptomyces orientalis],47.8%,39.1%,59.6%
CC[C@H](CO)Nc1nc(NCc2ccccc2)c2ncn(C(C)C)c2n1 [Roscovitine],32.7%,31.6%,55.2%
COc1ccc([C@@H]2Sc3ccccc3N(CCN(C)C)C(=O)[C@@H]2OC(C)=O)cc1 [Diltiazem hydrochloride],14.2%,13%,33.1%
C=C[C@@]1(C)CC(=O)[C@]2(O)[C@@]3(C)[C@@H](O)CCC(C)(C)[C@@H]3[C@H](O)[C@H](OC(C)=O)[C@@]2(C)O1 [Forskolin],35.3%,40.9%,51.5%
C[N+](C)(C)CC(=O)O [Betaine hydrochloride],37.3%,45.3%,57.8%
CNCCCC1c2ccccc2C=Cc2ccccc21 [Protriptyline hydrochloride],51.5%,42.3%,51.4%
CO[C@H]1O[C@@H]2O[C@@]3(C)CC[C@H]4[C@H](C)CC[C@@H]([C@H]1C)[C@@]24OO3 [Artemether],43.6%,37.6%,48.2%
CNC1(C)C2CCC(C2)C1(C)C (stereo unspecified) [Mecamylamine hydrochloride],49.1%,38.4%,55%
Cc1ccc(/C(=C\CN2CCCC2)c2ccccn2)cc1 [Triprolidine hydrochloride],49%,38.4%,60.8%
Cn1c(=O)c(-c2c(Cl)cccc2Cl)cc2cnc(Nc3ccc(N4CCOCC4)cc3)nc21,50.7%,45%,31.9%
Cc1c(OCC(F)(F)F)ccnc1C[S+]([O-])c1nc2ccccc2[nH]1 (stereo unspecified) [Lansoprazole],86.1%,80.9%,84.2%
Cl.N[C@@H](CCC(=O)O)C(=O)O [L-Glutamic acid hydrochloride],24.4%,35.3%,62.4%
CN(C)CCCc1cc(C(=O)Nc2ccc(-c3ccncc3)cc2)ccc1O,34.9%,39.7%,56.2%
CCOC(=O)C1=C[C@]2(CC)CCCN3CCc4c(n1c1ccccc41)[C@@H]32 [Vinpocetine],49.5%,35.8%,60.3%
Nc1nc2ccc(OC(F)(F)F)cc2s1 [Riluzole],69.3%,72.3%,60.1%
C=C(c1ccc(C(=O)O)cc1)c1cc2c(cc1C)C(C)(C)CCC2(C)C [Bexarotene],31.5%,8.9%,41.9%
CCCN(CCc1ccccc1)C1CCc2c(O)cccc2C1 (racemic) [(±)-PPHT hydrochloride],48.2%,25.4%,62.6%
"CCCn1c(=O)c2[nH]c(-c3ccc(S(=O)(=O)O)cc3)nc2n(CCC)c1=O [1,3-Dipropyl-8-p-sulfophenylxanthine]",35.4%,45.2%,64.1%
CC(=O)OC(C)C[N+](C)(C)C (stereo not drawn) [Acetyl-beta-methylcholine chloride],53.9%,47.1%,63.2%
C[C@H]1C[C@H]2[C@@H]3CCC4=CC(=O)C=C[C@]4(C)[C@@]3(F)[C@@H](O)C[C@]2(C)[C@@]1(O)C(=O)CO [Betamethasone],38.2%,39%,51%

Compound,general growth inhibition [1],growth inhibition [2],growth inhibition [3]
"CCCn1c(=O)c2c(ncn2C)n(CCC)c1=O [1,3-Dipropyl-7-methylxanthine]",30.8%,46.9%,54.9%
"CN(C)c1nc(N)c(C(=O)NC(=N)N)nc1Cl [5-(N,N-Dimethyl)amiloride hydrochloride]",37.6%,44.2%,63.3%
CC(=O)S[C@@H]1CC2=CC(=O)CC[C@]2(C)[C@H]2CC[C@@]3(C)[C@@H](CC[C@@]34CCC(=O)O4)[C@H]12 [Spironolactone],50.2%,41.5%,66.5%
CC(CN1c2ccccc2Sc2ccccc21)N(C)C (stereo unspecified) [Promethazine hydrochloride],58%,45%,70.9%
"CC(C)NCC(O)c1ccc(O)c(O)c1 (single isomer, unassigned; (-)) [(-)-Isoproterenol hydrochloride]",41.8%,38.3%,68.8%
NC(Cc1ccc(Cl)cc1)C(=O)O (racemic) [(±)-p-Chlorophenylalanine],27.1%,46%,63.9%
Cc1cccc(/C=C/c2ccccc2)n1,37.2%,30.3%,52.3%
CC[N+](CC)(CC)CCOc1cccc(OCC[N+](CC)(CC)CC)c1OCC[N+](CC)(CC)CC [Gallamine triethiodide],18%,36.9%,60.7%
O=c1[nH]c(=O)c2nc3ccccc3nc2[nH]1 [Alloxazine],28%,23.7%,41%
O=C1NC(=O)/C(=C\c2ccc3nccnc3c2)S1,44.7%,37.3%,53.1%
CSC(=N)NCCC[C@H](N)C(=O)O [S-Methyl-L-thiocitrulline acetate],50.5%,46.8%,71.9%
Cc1scc2c1N(C(=O)CN1CCN(C)CC1)c1ccccc1NC2=O [Telenzepine dihydrochloride],43.3%,49.7%,56.9%
COc1cccc(NC(=O)/C=C/c2ccc(Cl)cc2)c1,41.2%,33%,41.2%
CN1C(=O)CC[C@H]1c1cccnc1 [(-)-Cotinine],40.8%,45.5%,64.4%
Oc1ccccc1O [Pyrocatechol],46.8%,44.1%,59.5%
CC(/C=C/c1cccc(Oc2ccc(F)cc2)c1)N(O)C(N)=O (stereo unspecified),32.5%,33.4%,59.3%
CC(C)COC(=O)OCN1C(=O)CN(CCN2CC(=O)N(COC(=O)OCC(C)C)C(=O)C2)CC1=O [Sobuzoxane],40.8%,42.3%,64.2%
CCCCCCCC/C=C\CCCCCCCC(=O)O [Oleic Acid],25.2%,25.9%,48.7%
O=C1C(SCCO)=C(SCCO)C(=O)c2ccccc21,68.8%,47.3%,65.7%
NOCC(=O)O [O-(Carboxymethyl)hydroxylamine hemihydrochloride],18%,7.78%,40.2%
O=C(O)C1=CCCN(CCON=C(c2ccccc2)c2ccccc2)C1 [NO-711 hydrochloride],5.21%,7.63%,37.4%

Compound,general growth inhibition [1],growth inhibition [2],growth inhibition [3]
COc1ccc(NC(=O)c2ccc(-c3ccc(-c4noc(C)n4)cc3C)cc2)cc1N1CCN(C)CC1,38.2%,41.1%,54.1%
NC(N)=NCc1cccc(I)c1 [m-Iodobenzylguanidine hemisulfate],12.4%,8.34%,32.9%
COc1ccc(Cl)cc1C(=O)NCCc1ccc(S(=O)(=O)NC(=O)NC2CCCCC2)cc1 [Glybenclamide],11.1%,0.715%,27.9%
NCCC[C@](N)(C(=O)O)C(F)F (racemic) [DL-alpha-Difluoromethylornithine hydrochloride],49.6%,35.7%,66.1%
OC[C@H]1O[C@@H](n2cnc3c(N[C@H]4CCC[C@@H]4O)ncnc32)[C@H](O)[C@@H]1O,43.5%,46.3%,61.4%
CC(=O)[C@H]1CC[C@H]2[C@@H]3CC=C4C[C@@H](OS(=O)(=O)O)CC[C@]4(C)[C@H]3CC[C@]12C [Pregnenolone sulfate sodium],18%,51.4%,71.9%
COc1cc2nc(N3CCN(C(=O)c4ccco4)CC3)nc(N)c2cc1OC [Prazosin hydrochloride],-4.62%,-15%,2%
CC(C)NNC(=O)c1ccncc1 [Iproniazid phosphate],20.4%,10.1%,39.7%
C[N+](C)(C)CC=O [Betaine aldehyde chloride],51%,38.2%,60.4%
CC(C)C[C@H](NC(=O)[C@@H](O)[C@H](N)Cc1ccccc1)C(=O)O [Bestatin hydrochloride],41%,45.5%,56.3%
CC[N+](CC)(CC)CC(=O)Nc1c(C)cccc1C [Lidocaine N-ethyl bromide quaternary salt],54.3%,46.4%,76.1%
O=C(O)C=C1CCCc2ccccc2C1O (stereo unspecified),54.6%,42.4%,71.5%
CCCCC[C@H](CC(=O)NO)C(=O)N[C@H](C(=O)N1CCC[C@H]1CO)C(C)C [Actinonin],12.6%,9.77%,27.5%
CC(=O)[C@H]1CC[C@H]2[C@@H]3CCC4=CC(=O)CC[C@]4(C)[C@H]3CC[C@]12C [Progesterone],83.6%,76.3%,79.5%
COCCOc1cc2nc[nH]c(=O)c2cc1OCCOC,49%,44.3%,64.8%
O=C1CCCC(=O)C1C(=O)c1ccc(C(F)(F)F)cc1[N+](=O)[O-] [Nitisinone],40.4%,45.8%,32.9%
C[N+](C)(C)CCOC(N)=O [Carbachol],38.1%,33.7%,49.8%
Nc1ncnc2c1nc(Sc1ccc(Cl)cc1)n2C1OC2COP(=O)(O)O[C@@H]2[C@@H]1O (stereo partly specified) [8-(4-Chlorophenylthio)-cAMP sodium],52.3%,42.3%,58.9%
CCN(CC)CCOc1ccc(Nc2ncc3cc(-c4c(Cl)cccc4Cl)c(=O)n(C)c3n2)cc1,26.2%,22%,54.3%
O=c1n(CCCN2CCN(c3cccc(Cl)c3)CC2)nc2ccccn12 [Trazodone hydrochloride],26.2%,44.6%,60%

# Given with tabs: entries from further up
Compound	general growth inhibition [1]	growth inhibition [2]	growth inhibition [3]
CN[C@H](CC(C)C)C(=O)N[C@H]1C(=O)N[C@@H](CC(N)=O)C(=O)N[C@H]2C(=O)N[C@H]3C(=O)N[C@H](C(=O)N[C@H](C(=O)O)c4cc(O)cc(O)c4-c4cc3ccc4O)[C@H](O)c3ccc(c(Cl)c3)Oc3cc2cc(c3O[C@@H]2O[C@H](CO)[C@@H](O)[C@H](O)[C@H]2O[C@H]2C[C@](C)(N)[C@H](O)[C@H](C)O2)Oc2ccc(cc2Cl)[C@H]1O [Vancomycin hydrochloride from Streptomyces orientalis]	47.8%	39.1%	59.6%
CC[C@H](CO)Nc1nc(NCc2ccccc2)c2ncn(C(C)C)c2n1 [Roscovitine]	32.7%	31.6%	55.2%
Cc1ccc(/C(=C\CN2CCCC2)c2ccccn2)cc1 [Triprolidine hydrochloride]	49%	38.4%	60.8%
Cc1c(OCC(F)(F)F)ccnc1C[S+]([O-])c1nc2ccccc2[nH]1 (stereo unspecified) [Lansoprazole]	86.1%	80.9%	84.2%
Cl.N[C@@H](CCC(=O)O)C(=O)O [L-Glutamic acid hydrochloride]	24.4%	35.3%	62.4%
CCCN(CCc1ccccc1)C1CCc2c(O)cccc2C1 (racemic) [(±)-PPHT hydrochloride]	48.2%	25.4%	62.6%
CN(C)c1nc(N)c(C(=O)NC(=N)N)nc1Cl [5-(N,N-Dimethyl)amiloride hydrochloride]	37.6%	44.2%	63.3%
CC(=O)S[C@@H]1CC2=CC(=O)CC[C@]2(C)[C@H]2CC[C@@]3(C)[C@@H](CC[C@@]34CCC(=O)O4)[C@H]12 [Spironolactone]	50.2%	41.5%	66.5%
CC(C)NCC(O)c1ccc(O)c(O)c1 (single isomer, unassigned; (-)) [(-)-Isoproterenol hydrochloride]	41.8%	38.3%	68.8%
O=c1[nH]c(=O)c2nc3ccccc3nc2[nH]1 [Alloxazine]	28%	23.7%	41%
NOCC(=O)O [O-(Carboxymethyl)hydroxylamine hemihydrochloride]	18%	7.78%	40.2%
COc1ccc(Cl)cc1C(=O)NCCc1ccc(S(=O)(=O)NC(=O)NC2CCCCC2)cc1 [Glybenclamide]	11.1%	0.715%	27.9%
CC[N+](CC)(CC)CC(=O)Nc1c(C)cccc1C [Lidocaine N-ethyl bromide quaternary salt]	54.3%	46.4%	76.1%
CCCCC[C@H](CC(=O)NO)C(=O)N[C@H](C(=O)N1CCC[C@H]1CO)C(C)C [Actinonin]	12.6%	9.77%	27.5%
